# Data taken from the supplement of paper PMC10689618.
# “And” between values parts separate entries of the source, which are not always exact repeats. Equal entries are not always repeated. Structures can show the parent of a compound that is named as a salt. Some of the results follow. Many values rest on one well or one pass, so single values are uncertain.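 Labelled rat cortical synaptosomes were engulfed by primary human fetal astrocytes. Engulfment equaled a red/green ratio, corrected for calcein live-cell signal and normalized to the plate median. Compounds were toxic when calcein dropped over 30%, and reduced phagocytosis when below 70% of the median above 5 µM.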
# Legend:
# Conditions in all cases: 24 h
# [1] = system: Human fetal astrocytes; assay: loss of total cells relative to no-compound high-control median (toxicity); higher = more toxic (fewer cells)
# [2] = system: Human fetal astrocytes; assay: synaptosome phagocytosis (pHrodo/calcein intensity ratio) relative to plate median of data wells; higher = more phagocytosis
# [3] = system: Human fetal astrocytes; assay: loss of total cells relative to no-compound high-control median (toxicity); higher = more toxic (fewer cells); remark: listed apart in the source
# [4] = system: Human fetal astrocytes; assay: synaptosome phagocytosis (pHrodo/calcein intensity ratio) relative to plate median of data wells; higher = more phagocytosis; remark: listed apart in the source
compound,measurement,setting,value
"NC(Cn1oc(=O)[nH]c1=O)C(=O)O (single isomer, unassigned; (+)) [(+)-Quisqualic acid]",loss of total cells,[1]; 1.39 µM,-15.2%
same,loss of total cells,[1]; 2.78 µM,-17.7%
same,loss of total cells,[1]; 5.56 µM,-18.5%
same,loss of total cells,[1]; 11.11 µM,-23.4%
same,loss of total cells,[1]; 22.22 µM,-36.2%
same,synaptosome phagocytosis,[2]; 1.39 µM,84%
same,synaptosome phagocytosis,[2]; 2.78 µM,75.5%
same,synaptosome phagocytosis,[2]; 5.56 µM,74.4%
same,synaptosome phagocytosis,[2]; 11.11 µM,100%
same,synaptosome phagocytosis,[2]; 22.22 µM,137%
N=C(N)NN [Aminoguanidine hemisulfate],loss of total cells,[1]; 1.39 µM,-26.8%
same,loss of total cells,[1]; 2.78 µM,-13.2%
same,loss of total cells,[1]; 5.56 µM,-10.6%
same,loss of total cells,[1]; 11.11 µM,-9.4%
same,loss of total cells,[1]; 22.22 µM,7.9%
same,synaptosome phagocytosis,[2]; 1.39 µM,99.3%
same,synaptosome phagocytosis,[2]; 2.78 µM,90.8%
same,synaptosome phagocytosis,[2]; 5.56 µM,90.7%
same,synaptosome phagocytosis,[2]; 11.11 µM,94.4%
same,synaptosome phagocytosis,[2]; 22.22 µM,113%
NNCc1cccc(O)c1 [3-Hydroxybenzylhydrazine dihydrochloride],loss of total cells,[1]; 1.39 µM,-12.1%
same,loss of total cells,[1]; 2.78 µM,-29.9%
same,loss of total cells,[1]; 5.56 µM,11.5%
same,loss of total cells,[1]; 11.11 µM,-13%
same,loss of total cells,[1]; 22.22 µM,1.6%
same,synaptosome phagocytosis,[2]; 1.39 µM,99.1%
same,synaptosome phagocytosis,[2]; 2.78 µM,125%
same,synaptosome phagocytosis,[2]; 5.56 µM,122%
same,synaptosome phagocytosis,[2]; 11.11 µM,121%
same,synaptosome phagocytosis,[2]; 22.22 µM,111%
CN1CC[C@]2(CCN3CCc4c(oc5ccccc45)[C@@H]3C2)N(C)C1=O,loss of total cells,[1]; 1.39 µM,-14.7%
same,loss of total cells,[1]; 2.78 µM,-5.9%
same,loss of total cells,[1]; 5.56 µM,-4.2%
same,loss of total cells,[1]; 11.11 µM,4.8%
same,loss of total cells,[1]; 22.22 µM,-14%
same,synaptosome phagocytosis,[2]; 1.39 µM,108%
same,synaptosome phagocytosis,[2]; 2.78 µM,93%
same,synaptosome phagocytosis,[2]; 5.56 µM,74.5%
same,synaptosome phagocytosis,[2]; 11.11 µM,90.2%
same,synaptosome phagocytosis,[2]; 22.22 µM,106%
c1ccc2c(c1)[I+]c1ccccc1-2 [Diphenyleneiodonium chloride],loss of total cells,[1]; 1.39 µM,-1.3%
same,loss of total cells,[1]; 2.78 µM,14.5%
same,loss of total cells,[1]; 5.56 µM,11.5%
same,loss of total cells,[1]; 11.11 µM,25.6%
same,loss of total cells,[1]; 22.22 µM,29.6%
same,synaptosome phagocytosis,[2]; 1.39 µM,70.1%
same,synaptosome phagocytosis,[2]; 2.78 µM,71.3%
same,synaptosome phagocytosis,[2]; 5.56 µM,52.9%
same,synaptosome phagocytosis,[2]; 11.11 µM,39.3%
same,synaptosome phagocytosis,[2]; 22.22 µM,67.6%
C/C=C(/C)C(=O)O[C@H]1CC[C@@]2(C)[C@@H]3CC[C@H]4[C@]5(O)C[C@H](O)[C@@]6(O)[C@@H](CN7C[C@@H](C)CC[C@H]7[C@@]6(C)O)[C@]5(O)C[C@]42O[C@]13O,loss of total cells,[3]; 1.39 µM,-13.1% and -1.6%
same,loss of total cells,[3]; 2.78 µM,-4.7%
same,loss of total cells,[3]; 5.56 µM,0% and -16.1%
same,loss of total cells,[3]; 11.11 µM,-10.1% and 8.8%
same,loss of total cells,[3]; 22.22 µM,5.2% and 0%
same,synaptosome phagocytosis,[4]; 1.39 µM,101% and 88.9%
same,synaptosome phagocytosis,[4]; 5.56 µM,80.4% and 64.4%
same,synaptosome phagocytosis,[4]; 11.11 µM,97.4% and 120%
"C=CCN1CCC2(C)c3cc(O)ccc3CC1[C@@H]2C (single isomer, unassigned; (+)) [(+)-N-Allylnormetazocine hydrochloride]",loss of total cells,[1]; 1.39 µM,-11.7%
same,loss of total cells,[1]; 2.78 µM,-10.5%
same,loss of total cells,[1]; 5.56 µM,-18.9%
same,loss of total cells,[1]; 11.11 µM,-13.9%
same,loss of total cells,[1]; 22.22 µM,-1.9%
same,synaptosome phagocytosis,[2]; 1.39 µM,80%
same,synaptosome phagocytosis,[2]; 2.78 µM,96.1%
same,synaptosome phagocytosis,[2]; 5.56 µM,90.4%
same,synaptosome phagocytosis,[2]; 11.11 µM,89.6%
same,synaptosome phagocytosis,[2]; 22.22 µM,86.3%
c1ccc(/N=N/c2ccccc2)cc1,loss of total cells,[3]; 1.39 µM,6.1%
same,loss of total cells,[3]; 2.78 µM,0.4%
same,loss of total cells,[3]; 5.56 µM,10.1%
same,loss of total cells,[3]; 11.11 µM,12.1%
same,loss of total cells,[3]; 22.22 µM,0%
same,synaptosome phagocytosis,[4]; 1.39 µM,99.9%
same,synaptosome phagocytosis,[4]; 2.78 µM,77.2%
same,synaptosome phagocytosis,[4]; 5.56 µM,59.7%
same,synaptosome phagocytosis,[4]; 11.11 µM,116%
same,synaptosome phagocytosis,[4]; 22.22 µM,88.1%
c1ccc(CCCN2CCN(CCOC(c3ccccc3)c3ccccc3)CC2)cc1,loss of total cells,[1]; 1.39 µM,-6.3%
same,loss of total cells,[1]; 2.78 µM,1.7%
same,loss of total cells,[1]; 5.56 µM,9.9%
same,loss of total cells,[1]; 11.11 µM,4.9%
same,loss of total cells,[1]; 22.22 µM,20.8%
same,synaptosome phagocytosis,[2]; 1.39 µM,106%
same,synaptosome phagocytosis,[2]; 2.78 µM,79.6%
same,synaptosome phagocytosis,[2]; 5.56 µM,85.2%
same,synaptosome phagocytosis,[2]; 11.11 µM,87.1%
same,synaptosome phagocytosis,[2]; 22.22 µM,42.8%
C[N+]1(C)[C@@H]2CC[C@H]1C[C@@H](OC(=O)C(CO)c1ccccc1)C2 (stereo partly drawn) [Atropine methyl nitrate],loss of total cells,[1]; 1.39 µM,-5.5%
same,loss of total cells,[1]; 2.78 µM,-5.1%
same,loss of total cells,[1]; 5.56 µM,-2.3%
same,loss of total cells,[1]; 11.11 µM,4.9%
same,loss of total cells,[1]; 22.22 µM,1.1%
same,synaptosome phagocytosis,[2]; 1.39 µM,104%
same,synaptosome phagocytosis,[2]; 2.78 µM,112%
same,synaptosome phagocytosis,[2]; 5.56 µM,100%
same,synaptosome phagocytosis,[2]; 11.11 µM,95.2%
same,synaptosome phagocytosis,[2]; 22.22 µM,127%
CCCn1c(=O)c2[nH]c(C3CCCC3)nc2n(CCCOC(=O)c2ccc(S(=O)(=O)F)cc2)c1=O,loss of total cells,[1]; 1.39 µM,2.9%
same,loss of total cells,[1]; 2.78 µM,-12.8%
same,loss of total cells,[1]; 5.56 µM,-13.2%
same,loss of total cells,[1]; 11.11 µM,-26.5%
same,loss of total cells,[1]; 22.22 µM,12%
same,synaptosome phagocytosis,[2]; 1.39 µM,116%
same,synaptosome phagocytosis,[2]; 2.78 µM,103%
same,synaptosome phagocytosis,[2]; 5.56 µM,121%
same,synaptosome phagocytosis,[2]; 11.11 µM,103%
same,synaptosome phagocytosis,[2]; 22.22 µM,131%
C[N+](C)(C)CC#CCOC(=O)Nc1cccc(Cl)c1,loss of total cells,[1]; 1.39 µM,-21.7%
same,loss of total cells,[1]; 2.78 µM,-13.2%
same,loss of total cells,[1]; 5.56 µM,-23.5%
same,loss of total cells,[1]; 11.11 µM,-25.6%
same,loss of total cells,[1]; 22.22 µM,14.7%
same,synaptosome phagocytosis,[2]; 1.39 µM,101%
same,synaptosome phagocytosis,[2]; 2.78 µM,86.9%
same,synaptosome phagocytosis,[2]; 5.56 µM,87.8%
same,synaptosome phagocytosis,[2]; 11.11 µM,94.3%
same,synaptosome phagocytosis,[2]; 22.22 µM,104%
CCCN(CCC)[C@H]1CCc2c(F)ccc(O)c2C1 [S(-)-UH-301 hydrochloride],loss of total cells,[1]; 1.39 µM,-11.5%
same,loss of total cells,[1]; 2.78 µM,-7.5%
same,loss of total cells,[1]; 5.56 µM,-7.3%
same,loss of total cells,[1]; 11.11 µM,-2.7%
same,loss of total cells,[1]; 22.22 µM,-2.5%
same,synaptosome phagocytosis,[2]; 1.39 µM,94.4%
same,synaptosome phagocytosis,[2]; 2.78 µM,100%
same,synaptosome phagocytosis,[2]; 5.56 µM,93.2%
same,synaptosome phagocytosis,[2]; 11.11 µM,115%
same,synaptosome phagocytosis,[2]; 22.22 µM,84.9%
CC(N)C(O)c1ccccc1 (stereo not drawn),loss of total cells,[3]; 1.39 µM,-16.3%
same,loss of total cells,[3]; 2.78 µM,-3.7%
same,loss of total cells,[3]; 5.56 µM,-20.2%
same,loss of total cells,[3]; 11.11 µM,-14.1%
same,loss of total cells,[3]; 22.22 µM,30.1%
same,synaptosome phagocytosis,[4]; 1.39 µM,118%
same,synaptosome phagocytosis,[4]; 2.78 µM,96%
same,synaptosome phagocytosis,[4]; 5.56 µM,129%
same,synaptosome phagocytosis,[4]; 11.11 µM,106%
same,synaptosome phagocytosis,[4]; 22.22 µM,110%
COc1cc(C[C@@H](C)N)c(OC)cc1I [( R)-(-)-DOI hydrochloride],loss of total cells,[1]; 1.39 µM,5.4%
same,loss of total cells,[1]; 2.78 µM,8.5%
same,loss of total cells,[1]; 5.56 µM,-4.1%
same,loss of total cells,[1]; 11.11 µM,-11.2%
same,loss of total cells,[1]; 22.22 µM,15.2%
same,synaptosome phagocytosis,[2]; 1.39 µM,70.5%
same,synaptosome phagocytosis,[2]; 2.78 µM,82.4%
same,synaptosome phagocytosis,[2]; 5.56 µM,84.6%
same,synaptosome phagocytosis,[2]; 11.11 µM,96.3%
same,synaptosome phagocytosis,[2]; 22.22 µM,107%
O=C1CCCN1CC#CCN1CCCC1 [Oxotremorine sesquifumarate salt],loss of total cells,[1]; 1.39 µM,-4.3%
same,loss of total cells,[1]; 2.78 µM,14.9%
same,loss of total cells,[1]; 5.56 µM,3.3%
same,loss of total cells,[1]; 11.11 µM,31.4%
same,loss of total cells,[1]; 22.22 µM,8.4%
same,synaptosome phagocytosis,[2]; 1.39 µM,117%
same,synaptosome phagocytosis,[2]; 2.78 µM,126%
same,synaptosome phagocytosis,[2]; 5.56 µM,113%
same,synaptosome phagocytosis,[2]; 11.11 µM,129%
same,synaptosome phagocytosis,[2]; 22.22 µM,102%
CC(C)[C@@]1(NC(=O)[C@@H]2C=C3c4cccc5[nH]cc(c45)C[C@H]3N(C)C2)O[C@@]2(O)[C@@H]3CCCN3C(=O)[C@H](Cc3ccccc3)N2C1=O [Ergocristine],loss of total cells,[1]; 1.39 µM,-7.1%
same,loss of total cells,[1]; 2.78 µM,-10.3%
same,loss of total cells,[1]; 5.56 µM,-25.5%
same,loss of total cells,[1]; 11.11 µM,-13%
same,loss of total cells,[1]; 22.22 µM,5.6%
same,synaptosome phagocytosis,[2]; 1.39 µM,122%
same,synaptosome phagocytosis,[2]; 2.78 µM,119%
same,synaptosome phagocytosis,[2]; 5.56 µM,122%
same,synaptosome phagocytosis,[2]; 11.11 µM,128%
same,synaptosome phagocytosis,[2]; 22.22 µM,124%
NNC(=O)c1ccc(O)cc1 [4-Hydroxybenzhydrazide],loss of total cells,[1]; 1.39 µM,-15.5%
same,loss of total cells,[1]; 2.78 µM,-13.7%
same,loss of total cells,[1]; 5.56 µM,-20.6%
same,loss of total cells,[1]; 11.11 µM,-23.8%
same,loss of total cells,[1]; 22.22 µM,-17.6%
same,synaptosome phagocytosis,[2]; 1.39 µM,89.5%
same,synaptosome phagocytosis,[2]; 2.78 µM,112%
same,synaptosome phagocytosis,[2]; 5.56 µM,86.9%
same,synaptosome phagocytosis,[2]; 11.11 µM,107%
same,synaptosome phagocytosis,[2]; 22.22 µM,118%
N[C@@H](Cn1cc(I)c(=O)[nH]c1=O)C(=O)O [S-5-Iodowillardiine],loss of total cells,[1]; 1.39 µM,-22.7%
same,loss of total cells,[1]; 2.78 µM,-9.9%
same,loss of total cells,[1]; 5.56 µM,-16.9%
same,loss of total cells,[1]; 11.11 µM,1.1%
same,loss of total cells,[1]; 22.22 µM,-35.4%
same,synaptosome phagocytosis,[2]; 1.39 µM,84.6%
same,synaptosome phagocytosis,[2]; 2.78 µM,110%
same,synaptosome phagocytosis,[2]; 5.56 µM,102%
same,synaptosome phagocytosis,[2]; 11.11 µM,97.7%
same,synaptosome phagocytosis,[2]; 22.22 µM,124%
N.N.[Cl][Pt][Cl] [Cisplatin],loss of total cells,[1]; 1.39 µM,-17.5%
same,loss of total cells,[1]; 2.78 µM,-1.4%
same,loss of total cells,[1]; 5.56 µM,2.3%
same,loss of total cells,[1]; 11.11 µM,9.5%
same,loss of total cells,[1]; 22.22 µM,22.4%
same,synaptosome phagocytosis,[2]; 1.39 µM,103%
same,synaptosome phagocytosis,[2]; 2.78 µM,117%
same,synaptosome phagocytosis,[2]; 5.56 µM,106%
same,synaptosome phagocytosis,[2]; 11.11 µM,79.7%
same,synaptosome phagocytosis,[2]; 22.22 µM,123%

# 2 entries from above in another layout:
compound	measurement	setting	value
CCCn1c(=O)c2[nH]c(C3CCCC3)nc2n(CCCOC(=O)c2ccc(S(=O)(=O)F)cc2)c1=O	synaptosome phagocytosis	[2]; 2.78 µM	103%
C[N+](C)(C)CC#CCOC(=O)Nc1cccc(Cl)c1	loss of total cells	[1]; 11.11 µM	-25.6%

# In another format: results already given.
compound | measurement | setting | value
NNC(=O)c1ccc(O)cc1 [4-Hydroxybenzhydrazide] | synaptosome phagocytosis | [2]; 5.56 µM | 86.9%
same | synaptosome phagocytosis | [2]; 11.11 µM | 107%
N[C@@H](Cn1cc(I)c(=O)[nH]c1=O)C(=O)O [S-5-Iodowillardiine] | loss of total cells | [1]; 1.39 µM | -22.7%
same | loss of total cells | [1]; 22.22 µM | -35.4%
